The text below walks through data of patent US6265443A, “Method for treating neuronal injury with carboxyfullerene” (priority 1997, dated 2001).

The data set in a line: Spin-label/EPR membrane parameters (5- or 16-doxyl ketostearic acid in brain lipids). Particulars: 5-doxylstearic acid; for Order parameter: control 0.88; for Correlation time: control 5.1. Also on record: species or system mouse. The protocol:
Values are mean±SEM, n=8-12 per condition. I=p<0.05 vs. untreated injury condition, using ANOVA followed by Student-Newman-Keuls test for multiple comparisons. **=p<0.05 R-3b different than O-3a. […] The spin labels were added to lipids extracted from adult mouse brain at a ratio of 1:100. EPR settings were the same as those listed in the legend for FIGS. 9A and 9B.
^a Order parameter, S = a(T_.cent. - T .cent.)/(T - T ),
^b Correlation time, tc = 6.5 × 10^-10 wo [(ho
^c Lipid/aqueous partition factor, f = hL /hA, where hL

The compound `O=C(O)C1(C(=O)O)C23c4c5c6c7c8c9c%10c%11c%12c%13c%14c%15c(c6c6c4c4c%16c%17c%18c(c%19c%20c2c5c8c2c%20c5c%19c8c%19c%20c(c%21c%12c%12c%22c%23c(c(c%188)C%198C(C(=O)O)(C(=O)O)C%21%228)c%17c8c4c6c%15c(c%12%14)c%238)c%11c(c92)c%205)C%1613)C71C(C(=O)O)(C(=O)O)C%13%101` (stereo not shown) [R-3b] had an Order parameter of 0.86 and a Correlation time of 4.5 ns.
Regarding `O=C(O)C1(C(=O)O)C23c4c5c6c7c8c4-c4c2c2c9c%10c%11c%12c(c-5c5c%13c%14c%15c%16c%17c(c-7c7c%18c%19c%20c%21c(c4C%204C(C(=O)O)(C(=O)O)C874)c2c2c9c4c%11c7c(c%13%12)c%14c8c%16c9c(c%18%17)c%19c%11c%21c2c2c4c7c8c9c%112)C%152C(C(=O)O)(C(=O)O)C652)C%1013` (stereo not shown) [O-3a], the Order parameter was determined as 0.84 ± 0.01 and the Correlation time turned out to be 5.7 ± 0.5 ns.
